Assay results: patent US20040260071A1, “Benzophene-linked crf and crf-like peptides for covalent labeling of corticotropin-releasing factor crf binding protein” (priority 2001, published 2004)
At least one structure is not confirmed: it was looked up by name or label, or the drawing left a doubt.

Assays:
rCRFBP [1] = target: T1, rCRFBP (Rattus norvegicus, UniProt P24388); assay: Scintillation proximity assay with [125I-Tyr0]h/rCRF as radioligand, binding to rCRFBP; conditions: Example 8; 95% CI given alongside; read-out: IC50 (affinity to rCRFBP)
T1 construct: made in house; host or cells: HEK 293 cells, stably transfected (pcDNA3); serum-free conditioned medium used directly
T1 sequence (P24388 25-322): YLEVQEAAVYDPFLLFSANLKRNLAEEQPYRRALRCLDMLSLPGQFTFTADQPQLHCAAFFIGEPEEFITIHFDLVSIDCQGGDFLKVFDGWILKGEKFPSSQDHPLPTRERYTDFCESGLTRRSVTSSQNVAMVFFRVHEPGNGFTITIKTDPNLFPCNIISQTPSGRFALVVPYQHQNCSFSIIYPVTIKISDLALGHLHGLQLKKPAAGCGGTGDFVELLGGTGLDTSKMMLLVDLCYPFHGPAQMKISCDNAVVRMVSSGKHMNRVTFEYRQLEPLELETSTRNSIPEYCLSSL
Text: Recombinant rCRFBP containing a C-terminal His-tag was produced in human embryonic kidney (HEK) 293 cells under serum-free conditions (45).

rCRFBP [2] = target: T1, rCRFBP; assay: Radioligand binding assay (charcoal precipitation, 3H-rUcn) for affinity to rCRFBP; conditions: mean ± S.E.M. of three independent experiments in duplicate; 3H-rUcn radioligand; Cheng-Prusoff; read-out: Inhibition constants (Kl)
Description: The peptides were tested for their affinity to rCRFBP on the basis of a charcoal precipitation assay utilizing tritiated Ucn as radioligand (21). […] Siliconized microreaction vials (Sigma, Deisenhofen, Germany) were used to prevent binding of peptides to plastic surfaces. Competition binding experiments were performed by employing 0 to maximally 3 μM unlabeled competitor. The applied concentration range depended on the expected order of magnitude of ligand affinity. After 2 hours of incubation at room temperature, unbound ligand was precipitated by the addition of 100 μl precipitation buffer (binding buffer+10% w/v activated charcoal+2% BSA). The suspension was mixed vigorously and the adsorption was allowed to proceed for 2 min at room temperature. After centrifugation for 2 min at 12000×g, 200 μl supernatant was removed, mixed with 2 ml Ecolume liquid scintillation cocktail (ICN Biomedicals, Irvine, Calif.), and counted for 3 min in a Wallac 1209 Rackbeta liquid scintillation counter (Wallac, Turku, Finland). All assays were performed in duplicate and repeated at least three times. Binding data were analyzed using the Prism computer program (GraphPad Software, San Diego, Calif.).

For “H-ISLDLTFHLLREVLEMARAEQLAQQAHS-OH [Compound 9, h/rCRF^6-33, reference compound]”, the IC50 (rCRFBP [1]) was 1.9 nM and the Ki (rCRFBP [2]) was 0.83 ± 0.026 nM.
